Changes are numbered by the printed parent chain. No constants are given. Whether binding was seen depends on the method and setting. Binding seen in cells or lysates may run through a third protein. Some results given as binding are weak or reduced against the parent protein; the word gives no strength. Tags and fused reporters may be left off the sequences shown.
Assays:
Assay in all cases: co-IP
[1] = molecular target: T1, Unc93b1 triple-alanine mutant of amino acids 273-275, 3xFLAG-tagged (mouse) (UniProt Q8VCW4)
T1 sequence: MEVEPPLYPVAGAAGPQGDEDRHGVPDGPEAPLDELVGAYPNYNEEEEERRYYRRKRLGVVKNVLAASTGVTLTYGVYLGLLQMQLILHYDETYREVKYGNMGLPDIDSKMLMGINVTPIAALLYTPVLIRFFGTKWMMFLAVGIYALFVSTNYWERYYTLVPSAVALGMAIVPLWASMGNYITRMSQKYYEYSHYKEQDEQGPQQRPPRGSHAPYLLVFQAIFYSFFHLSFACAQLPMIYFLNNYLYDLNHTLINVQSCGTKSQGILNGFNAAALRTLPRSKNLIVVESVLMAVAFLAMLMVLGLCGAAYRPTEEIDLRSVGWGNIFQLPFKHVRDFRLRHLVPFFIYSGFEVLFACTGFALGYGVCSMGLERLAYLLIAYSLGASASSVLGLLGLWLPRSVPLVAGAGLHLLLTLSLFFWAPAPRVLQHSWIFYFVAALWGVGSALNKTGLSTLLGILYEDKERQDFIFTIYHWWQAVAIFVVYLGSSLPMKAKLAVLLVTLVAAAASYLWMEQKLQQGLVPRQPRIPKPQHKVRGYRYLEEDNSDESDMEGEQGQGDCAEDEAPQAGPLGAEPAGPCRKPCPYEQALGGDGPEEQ

[2] = molecular target: T2, Unc93b1 triple-alanine mutant of amino acids 279-281, 3xFLAG-tagged (mouse) (UniProt Q8VCW4)
T2 sequence: T1 sequence with A273K, A274T, A275V, L279A, P280A, R281A

[3] = molecular target: T3, Unc93b1^K283A, 3xFLAG-tagged (mouse) (UniProt Q8VCW4)
T3 sequence: T1 sequence with A273K, A274T, A275V, K283A

[4] = molecular target: T4, Unc93b1^N284A, 3xFLAG-tagged (mouse) (UniProt Q8VCW4)
T4 sequence: T1 sequence with A273K, A274T, A275V, N284A

B1: TLR9, HA-tagged (receptor, UniProt Q9EQU3 26-1032)
chain: LGTLPAFLPCELKPHGLVDCNWLFLKSVPRFSAAASCSNITRLSLISNRIHHLHNSDFVHLSNLRQLNLKWNCPPTGLSPLHFSCHMTIEPRTFLAMRTLEELNLSYNGITTVPRLPSSLVNLSLSHTNILVLDANSLAGLYSLRVLFMDGNCYYKNPCTGAVKVTPGALLGLSNLTHLSLKYNNLTKVPRQLPPSLEYLLVSYNLIVKLGPEDLANLTSLRVLDVGGNCRRCDHAPNPCIECGQKSLHLHPETFHHLSHLEGLVLKDSSLHTLNSSWFQGLVNLSVLDLSENFLYESITHTNAFQNLTRLRKLNLSFNYRKKVSFARLHLASSFKNLVSLQELNMNGIFFRLLNKYTLRWLADLPKLHTLHLQMNFINQAQLSIFGTFRALRFVDLSDNRISGPSTLSEATPEEADDAEQEELLSADPHPAPLSTPASKNFMDRCKNFKFTMDLSRNNLVTIKPEMFVNLSRLQCLSLSHNSIAQAVNGSQFLPLTNLQVLDLSHNKLDLYHWKSFSELPQLQALDLSYNSQPFSMKGIGHNFSFVTHLSMLQSLSLAHNDIHTRVSSHLNSNSVRFLDFSGNGMGRMWDEGGLYLHFFQGLSGLLKLDLSQNNLHILRPQNLDNLPKSLKLLSLRDNYLSFFNWTSLSFLPNLEVLDLAGNQLKALTNGTLPNGTLLQKLDVSSNSIVSVVPAFFALAVELKEVNLSHNILKTVDRSWFGPIVMNLTVLDVRSNPLHCACGAAFVDLLLEVQTKVPGLANGVKCGSPGQLQGRSIFAQDLRLCLDEVLSWDCFGLSLLAVAVGMVVPILHHLCGWDVWYCFHLCLAWLPLLARSRRSAQTLPYDAFVVFDKAQSAVADWVYNELRVRLEERRGRRALRLCLEDRDWLPGQTLFENLWASIYGSRKTLFVLAHTDRVSGLLRTSFLLAQQRLLEDRKDVVVLVILRPDAHRSRYVRLRQRLCRQSVLFWPQQPNGQGGFWAQLSTALTRDNRHFYNQNFCRGPTAE
**Q.** Which results are given for B1?
**A.** binding [1]: binds; binding [2]: no binding; binding [3]: binds; binding [4]: binds

Source: paper doi:10.1101/410092
